The source of these data is article PMC5512060.

By UniProt entry, the sequences of proteins in these tests, tags left out. Where a name states a change or a piece, a line headed by the entry shows the natural chain unless it says otherwise.
UniProt Q15286: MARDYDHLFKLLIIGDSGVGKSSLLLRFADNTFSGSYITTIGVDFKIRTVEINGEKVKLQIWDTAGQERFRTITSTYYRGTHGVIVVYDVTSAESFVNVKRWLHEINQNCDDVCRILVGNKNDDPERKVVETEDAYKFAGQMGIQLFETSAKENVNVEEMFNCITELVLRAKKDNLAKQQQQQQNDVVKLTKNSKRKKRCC

Results are given in words; binding and its absence hold for the method and conditions named. In cells and extracts the contact can be indirect. Some results given as binding are weak or reduced against the parent protein; the word gives no strength. Tags and fused reporters may be left off the sequences shown.

The target in one assay is Rab35(Q67A)–GST (UniProt Q15286). Kind of assay: pull-down; GSH beads coupled to 3 ug GST-Rab35 proteins or GST alone, incubated 3–4 h at 4 °C with HEK-293T lysates containing ACAP2–GFP; immunoblot with anti-GFP; only the target purified.
The target of the next assay is Rab35-WT–GST (UniProt Q15286). The description is as above.
The next assay concerns the target Rab35-WT–Myc (UniProt Q15286). Kind of assay: co-IP; HEK-293T expressing ACAP2–GFP and Rab35-WT–Myc; IP buffer 25 mM Tris/HCl pH 7.4, 150 mM NaCl, 1 mM EDTA, 1% Nonidet P-40, 5% glycerol; anti-c-Myc antibodies on Dynabeads, 2 h, 4 °C; isotype control.
A further assay addresses Rab35(Q67A)-Myc (UniProt Q15286). Nature of the assay: co-IP; HEK-293T co-transfected; cells treated with 10 mM NaF and 100 uM AlCl3 for 30 min at 37 °C, lysed in RabGAP buffer (1% Brij 97, 1% Triton X-100, 150 mM NaCl, 10 mM Tris/HCl pH 7.5, with DTSSP); anti-Myc antibodies on Dynabeads, 2 h, 4 °C; isotype control.

B1: ACAP2–GFP (protein, UniProt Q15057 1-778)
chain: MKMTVDFEECLKDSPRFRAALEEVEGDVAELELKLDKLVKLCIAMIDTGKAFCVANKQFMNGIRDLAQYSSNDAVVETSLTKFSDSLQEMINFHTILFDQTQRSIKAQLQNFVKEDLRKFKDAKKQFEKVSEEKENALVKNAQVQRNKQHEVEEATNILTATRKCFRHIALDYVLQINVLQSKRRSEILKSMLSFMYAHLAFFHQGYDLFSELGPYMKDLGAQLDRLVVDAAKEKREMEQKHSTIQQKDFSSDDSKLEYNVDAANGIVMEGYLFKRASNAFKTWNRRWFSIQNNQLVYQKKFKDNPTVVVEDLRLCTVKHCEDIERRFCFEVVSPTKSCMLQADSEKLRQAWIKAVQTSIATAYREKGDESEKLDKKSSPSTGSLDSGNESKEKLLKGESALQRVQCIPGNASCCDCGLADPRWASINLGITLCIECSGIHRSLGVHFSKVRSLTLDTWEPELLKLMCELGNDVINRVYEANVEKMGIKKPQPGQRQEKEAYIRAKYVERKFVDKYSISLSPPEQQKKFVSKSSEEKRLSISKFGPGDQVRASAQSSVRSNDSGIQQSSDDGRESLPSTVSANSLYEPEGERQDSSMFLDSKHLNPGLQLYRASYEKNLPKMAEALAHGADVNWANSEENKATPLIQAVLGGSLVTCEFLLQNGANVNQRDVQGRGPLHHATVLGHTGQVCLFLKRGANQHATDEEGKDPLSIAVEAANADIVTLLRLARMNEEMRESEGLYGQPGDETYQDIFRDFSQMASNNPEKLNRFQQDSQKF
Turning to B1, the binding entry with Rab35(Q67A)–GST, with Rab35-WT–GST and in the assay with Rab35-WT–Myc was “binds” each time.

B2: TBC1D10A(R160A)-GFP (enzyme, UniProt Q9BXI6 1-508)
chain: MAKSNGENGPRAPAAGESLSGTRESLAQGPDAATTDELSSLGSDSEANGFAERRIDKFGFIVGSQGAEGALEEVPLEVLRQRESKWLDMLNNWDKWMAKKHKKIRLRCQKGIPPSLRGRAWQYLSGGKVKLQQNPGKFDELDMSPGDPKWLDVIERDLHAQFPFHEMFVSRGGHGQQDLFRVLKAYTLYRPEEGYCQAQAPIAAVLLMHMPAEQAFWCLVQICEKYLPGYYSEKLEAIQLDGEILFSLLQKVSPVAHKHLSRQKIDPLLYMTEWFMCAFSRTLPWSSVLRVWDMFFCEGVKIIFRVGLVLLKHALGSPEKVKACQGQYETIERLRSLSPKIMQEAFLVQEVVELPVTERQIEREHLIQLRRWQETRGELQCRSPPRLHGAKAILDAEPGPRPALQPSPSIRLPLDAPLPGSKAKPKPPKQAQKEQRKQMKGRGQLEKPPAPNQAMVVAAAGDACPPQHVPPKDSAPKDSAPQDLAPQVSAHHRSQESLTSQESEDTYL
Regarding B2, the binding entry with Rab35(Q67A)-Myc is recorded as “binds”.
